US20190224343A1, “CLEAVABLE COATING MATERIAL HAVING MICROBIAL FUNCTIONALITY” (ORIGINAL G B.V., priority 2012, published 2019)
At least one compound was matched to its structure with a doubt left.

Test system: S. aureus (Xen29)
Test: Discrimination of S. aureus (Xen29)-induced myositis from sterile myositis (Cytodex beads) in mice, ex vivo tissue fluorescence

Question: With `CC1(C)C(=CC=C2CCCC(C=CC3=[N+](CCCCCC(=O)[O-])c4ccc(S(=O)(=O)[O-])cc4C3(C)C)=C2Oc2ccc(S(=O)(=O)[O-])cc2)N(CCCCS(=O)(=O)[O-])c2ccc(S(=O)(=O)[O-])cc21.[Na+].[Na+].[Na+].[Na+]` [IRDye 800CW] as the molecule, how does the “fluorescence signal, muscle tissue infected with S. aureus (Xen29)” value read?
Answer: The value was 4.1×102±2.6×102 counts.

Question: What about the “fluorescent signal, muscle tissue with sterile inflammation” value (Cytodex bead sterile myositis) of the same molecule?
Answer: Its value is 1.8×102±0.8×102 counts.

Question: What about the “fluorescent signal, healthy muscle tissue” value (non-infected contralateral healthy tissue) of the same molecule?
Answer: The value was 1.2×102 0.1×102 counts.
